Results published in patent US9671412B2, “Beclin 1 phosphorylation” (Board of Regents, The University of Texas System, priority 2012, dated 2017).

Tested on: HCC827 NSCLC xenografts
Assay: TTF-1 staining of HCC827 xenografts expressing Beclin 1 constructs
Assay type: in vivo, mouse
Settings: pathological score

Row | Substance | xenografts strongly positive for TTF-1 | xenografts moderately positive for TTF-1 | xenografts weakly positive for TTF-1
1 | Beclin 1: wild-type human Beclin 1, essential autophagy and tumor suppressor protein; expressed in cells | 10/10 | – | –
2 | Flag-Beclin 1 EEE: Flag-Beclin 1 with three phosphomimetic mutations Y229E/Y233E/Y352E | – | 3/10 | 7/10
3 | Flag-Beclin 1 FFF: Flag-Beclin 1 with three non-phosphorylatable mutations Y229F/Y233F/Y352F | 10/10 | – | –
